Key:
[1] = general procedure: Fmoc solid-phase peptide synthesis; Sieber Amide resin; DCC/HOBt; DIPCDI/HOAt; DIPCDI/HOOBt; PyAOP/HOAt/DIEA for fragment condensation; conditions: whole synthesis
[2] = general procedure: Fmoc solid-phase peptide synthesis; Rink Amide MBHA resin; DCC/HOBt; DIPCDI/HOAt; DIPCDI/HOOBt; PyAOP/HOAt/DIEA for fragment condensation; conditions: whole synthesis
[3] = general procedure: Fmoc solid-phase peptide synthesis; Rink Amide MBHA resin; Sieber Amide resin; 2-chlorotrityl resin for protected fragments; DCC/HOBt; DIPCDI/HOAt; DIPCDI/HOOBt; PyAOP/HOAt/DIEA for fragment condensation; conditions: whole synthesis
[4] = general procedure: Fmoc solid-phase peptide synthesis; Sieber amide resin; DCC/HOBt; DIPCDI/HOAt; DIPCDI/HOOBt; PyAOP/HOAt/DIEA for fragment condensation; conditions: whole synthesis, scale 0.02 mmol
[5] = general procedure: Fmoc solid-phase peptide synthesis; Rink Amide LL Resin; DCC/HOBt; DIPCDI/HOAt; DIPCDI/HOOBt; PyAOP/HOAt/DIEA for fragment condensation; conditions: whole synthesis, scale 0.02 mmol

3-Carboxypropionyl-[D-Hyp^24,Iva^25,Pya(4)^26,Cha^27,36,Leu(Me)^28,Lys^30,Aib^31]-PYY (23-36)
isolated mass ([1]; scale 0.25 mmol): 217.2 mg

3-Carboxypropionyl-[D-Pro^24,Cha^27,28,36,Lys^30,Aib^31]-PYY(23-36)
isolated mass ([1]; scale 0.01 mmol): 4.2 mg

4-({[imino(octylamino)methyl]amino}methyl)benzoyl-[Ala^26, Ile^28,31]-PYY(25-36)
isolated mass ([2]; scale 0.03 mmol): 9.3 mg

4-Aminomethylbenzoyl-[Ala^26,28, Ile^31]-PYY(25-36)
isolated mass ([1]; scale 0.02 mmol): 9.2 mg

4-Aminomethylbenzoyl-[Ala^26, Ile^28,31,Phe^36]-PYY (25-36)
isolated mass ([1]; scale 0.025 mmol): 1.9 mg

4-Guanidinomethylbenzoyl-[Ala^26, Ile^28,31]-PYY(25-36)
isolated mass ([3]; scale 0.015 mmol): 4.4 mg

4-aminomethylbenzoyl-[Ala^26, Ile^28,31, Har^33]-PYY(25-36)
isolated mass ([2]; scale 0.025 mmol): 2.2 mg

4-imidazolecarbonyl-[D-Hyp^24,Iva^25,Pya(4)^26,Cha^27,36,Leu(Me)^28,Lys^30,Aib^31]-PYY (23-36)
isolated mass ([1]; scale 0.5 mmol): 365.5 mg

(3-carboxypropyl)carbamoyl-[D-Hyp^24,Iva^25,Pya(4)^26,Cha^27,36,Leu(Me)^28,Lys^30,Aib^31]-PYY (23-36)
isolated mass ([1]; scale 0.25 mmol): 345 mg

(Carboxymethyl)carbamoyl-[D-Pro^24,Pya(4)^26,Cha^27,36,Aib^28,31,Lys^30]-PYY (23-36) (RLRAYINLITRQRY; D-residues)
isolated mass ([1]; scale 0.375 mmol): 233 mg

(Tetrahydro-2H-pyran-4-yl)carbamoyl-[Glu^23,D-Pro^24, Pya(4)^26,Cha^27,36,Aib^28,31, Lys^30]-PYY(23-36) (RHYKNLIERQRY; cyclised or stapled)
isolated mass ([1]; scale 0.375 mmol): 316 mg

(tetrahydro-2H-pyran-4-yl)carbonyl-[D-Pro^24,Pya(4)^26,Cha^27,36,Aib^28,31,Lys^30]-PYY (23-36)
isolated mass ([1]; scale 0.01 mmol): 6.6 mg

Ac-[D-Cha^24,Abu^26,Cha^27,28,36,Aib^31]-PYY(24-36)
isolated mass ([1]; scale 0.01 mmol): 15.1 mg

Ac-[D-Hyp^24,Iva^25,28,Pya(4)^26,Cha^27,36,Lys^30,Aib^31]-PYY(23-36)
isolated mass ([1]; scale 0.25 mmol): 250.2 mg

Ac-[D-Pro^24,Cha^27,28,Aib^31]-PYY(23-36)
isolated mass [4]: 1.6 mg

Ac-[D-Pro^24,Iva^25,Pya(4)^26,Cha^27,36,Leu(Me)^28,Lys^30,Aib^31]-PYY (23-36)
isolated mass ([1]; scale 0.21 mmol): 279.8 mg

Ac-[D-Pro^24,Pya (4)^26, Cha^27,36,Iva^28,Lys^30,Aib^31]-PYY(23-36)
isolated mass ([1]; scale 0.25 mmol): 174.8 mg

Ac-[D-Pro^24,Pya (4)^26,Cha^27,36,Aib^28,31,Lys(Hexyl)^30]-PYY(23-36) (RHEINLKTRQRY; cyclised or stapled)
isolated mass [5]: 2.7 mg

Ac-[D-Pro^24,Pya(4)^26,Cha^27,36,Aib^28,31,Har^30]-PYY(23-36)
isolated mass [5]: 4.1 mg

Ac-[D-Pro^24,Pya(4)^26,Cha^27,36,Aib^28,31,Lys(Ac)^30]—PYY (23-36) (LRAYINLITRQRY; D-residues)
isolated mass [5]: 5.1 mg

Ac-[D-Pro^24,Pya(4)^26,Cha^27,36,Aib^28,31,Lys^30]-PYY(23-36)
crude mass ([1]; scale 0.25 mmol): 486.6 mg | isolated mass ([3]; scale 0.75 mmol): 744 mg

Ac—[N(iBu)Gly^24,Cha^27,28,36,Aib^31]-PYY(23-36)
isolated mass ([1]; scale 0.01 mmol): 10.9 mg

Benzoyl-[Cha^27,28,36,Aib^31]-PYY(25-36)
isolated mass ([1]; scale 0.1 mmol): 84.1 mg

Morpholinocarbonyl-[D-Pro^24,Cha^27,36,Leu (Me)^28,Lys^30,Aib^31]-PYY (23-36)
isolated mass ([1]; scale 0.01 mmol): 3.9 mg

Succinyl-[Acp^22, D-Pro^24, Cha^27,36, Leu(Me)^28,Lys^30,Aib^31]-PYY(22-36)
isolated mass ([1]; scale 0.01 mmol): 11.8 mg

Tetrahydro-2H-pyran-4-yl-carbamoyl-[D-Pro^24, Cha^27,36,Leu(Me)^28,Lys^30,Aib^31]-PYY (23-36)
isolated mass ([1]; scale 0.01 mmol): 11.1 mg

[N(iBu)Gly^23, D-Pro^24,Cha^27,28,36,Aib^31]-PYY(23-36)
isolated mass ([1]; scale 0.01 mmol): 7.7 mg

carbamoyl-[Asp^23,D-Pro^24,Cha^27,28,36,Aib^31]-PYY(23-36)
isolated mass ([1]; scale 0.01 mmol): 6.8 mg

tetrahydro-2H-pyran-4-ylcarbamoyl-[D-Pro^24,Pya(4)^26,Cha^27,36,Aib^28,31,Lys^30]-PYY (23-36)
isolated mass ([1]; scale 0.5 mmol): 685 mg

From patent publication US9260500B2 (Takeda Pharmaceutical Company Limited, priority 2009, dated 2016)
